Experimental data taken from publication PMC5173098.
Results are given in words; binding and its absence hold for the method and conditions named. In cells and extracts the contact can be indirect. Some entries that bind do so weakly or less than the wild type. Tags and fused reporters may be left off the sequences shown. Values belong to the substance of their own block, whether it stands above or below them.

Protein sequences, listed by entry. Tags and fused reporters are not part of them.
UniProt Q13489: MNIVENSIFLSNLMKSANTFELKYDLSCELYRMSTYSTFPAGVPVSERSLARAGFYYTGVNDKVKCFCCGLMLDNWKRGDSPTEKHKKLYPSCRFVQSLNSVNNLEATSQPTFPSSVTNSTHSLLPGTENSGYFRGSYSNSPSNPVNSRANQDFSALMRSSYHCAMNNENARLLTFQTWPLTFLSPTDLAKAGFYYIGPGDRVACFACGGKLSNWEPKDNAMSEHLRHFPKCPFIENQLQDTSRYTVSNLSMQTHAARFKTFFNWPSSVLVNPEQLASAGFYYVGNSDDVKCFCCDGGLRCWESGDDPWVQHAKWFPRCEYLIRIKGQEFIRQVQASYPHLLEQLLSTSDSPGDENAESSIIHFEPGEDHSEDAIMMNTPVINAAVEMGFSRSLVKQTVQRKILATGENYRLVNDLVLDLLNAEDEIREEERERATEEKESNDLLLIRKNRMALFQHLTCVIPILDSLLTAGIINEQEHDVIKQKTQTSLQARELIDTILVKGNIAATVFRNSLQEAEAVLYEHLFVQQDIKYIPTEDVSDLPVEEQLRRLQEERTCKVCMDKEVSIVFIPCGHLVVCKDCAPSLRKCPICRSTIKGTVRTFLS

Columns and labels:
[1] = biological target: T1, Myc-tagged Pellino-1 (human) (UniProt Q96FA3); assay: co-IP; HCT116 cells transfected with Myc-Pellino-1 and Flag-cIAP2, 48 hours; 2 mg lysate in 50 mM Tris-HCl pH 7.5, 150 mM NaCl, 1% NP40, 1 mM EDTA; IP with anti-Myc 2 hours at 4°C, blot anti-Flag
T1 sequence: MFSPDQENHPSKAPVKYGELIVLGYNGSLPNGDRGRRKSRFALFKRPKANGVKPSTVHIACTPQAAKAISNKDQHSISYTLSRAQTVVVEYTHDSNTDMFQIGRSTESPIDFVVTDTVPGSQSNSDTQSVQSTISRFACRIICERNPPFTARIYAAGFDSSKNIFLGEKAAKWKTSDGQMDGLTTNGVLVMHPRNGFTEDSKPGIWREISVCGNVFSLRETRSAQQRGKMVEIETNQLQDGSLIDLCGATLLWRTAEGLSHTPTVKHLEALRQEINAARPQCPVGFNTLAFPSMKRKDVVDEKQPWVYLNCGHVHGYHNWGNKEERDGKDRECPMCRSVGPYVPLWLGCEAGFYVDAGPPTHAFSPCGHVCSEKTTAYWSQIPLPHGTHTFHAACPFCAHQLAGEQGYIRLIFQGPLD

[2] = biological target: T2, TAP-tagged Pellino-1 (human) (UniProt Q96FA3); assay: pull-down; lysates of 293T cells stably expressing TAP (Strep-Flag)-Pellino-1 in NETN buffer (100 mM NaCl, 1 mM EDTA, 20 mM Tris-HCl pH 8.0, 0.5% Nonidet P-40) incubated with streptavidin-Sepharose beads 8 hours at 4°C; bound proteins immunoblotted with anti-cIAP1, anti-cIAP2, anti-Flag
T2 sequence: T1 sequence

[3] = biological target: T3, GST-Pellino-1 fusion protein (human) (UniProt Q96FA3); assay: pull-down; GST-Pellino-1 absorbed onto glutathione Sepharose beads, incubated with whole-cell extracts from asynchronized A549 cells; immunoblot; only the target purified
T3 sequence: T1 sequence

binding [1]: binds
Substance: Flag-cIAP2 (from UniProt Q13489 1-604)

binding [2]: binds
Substance: cIAP2 (endogenous, 293T cells) (from UniProt Q13489 1-604)

binding [3]: binds
Substance: cIAP2 (endogenous, A549 cells) (from UniProt Q13489 1-604)
